PubChem BioAssay AID1508597 | Cure First, 2020
Shown is an unselected part of about 2,100 reagents tested. 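Calls flag viability under 80% in either arm, not effects specific to rucaparib; the reference for percent is not stated.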 Entries without a mark were called inactive. Not given: the 100% reference.

- Screen: 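Survival screen with siRNA in ovarian cancer cells derived from patients, with or without rucaparib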 (primary screen)
- Cells: human ovarian carcinoma lines grown from tumours: OCI-P5x (papillary serous) and OCI-C5x (clear cell)
- Reagents: siRNA pool against human genes, 1.25 pmol siRNA per well
- Duration: 72 h or 96 h, depending on the cell culture
- Challenge: rucaparib 20 µM (about IC30) or vehicle, present until read-out
- Measurement: 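Luminescent ATP-based viability assay read 72 or 96 h after transfection, depending on culture, given as normalised percent viability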
- Reading the numbers: viability, normalised: higher = more viable cells remaining
- Active means: 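Active when normalised viability falls below 80 percent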
- Meaning of the calls: active = viability under 80%; inactive = viability 80% or more

DYRK1B, rucaparib or vehicle Rucaparib, cell line OCI-C5x (clear cell), technical replicate 1 gave viability, normalised (%) = 55.6 (active).
With DYRK1B, rucaparib or vehicle Rucaparib, cell line OCI-C5x (clear cell), technical replicate 2 the deposit lists viability, normalised (%) = 31.7 (active).
DYRK1B, rucaparib or vehicle Rucaparib, cell line OCI-C5x (clear cell), technical replicate 3 gave viability, normalised (%) = 45 (active).
For DYRK1B, rucaparib or vehicle Rucaparib, cell line OCI-P5x (serous), technical replicate 1, the values are viability, normalised (%) = 81.3.
DYRK1B, rucaparib or vehicle Rucaparib, cell line OCI-P5x (serous), technical replicate 2 scored viability, normalised (%) = 86.3.
DYRK1B, rucaparib or vehicle Rucaparib, cell line OCI-P5x (serous), technical replicate 3 scored viability, normalised (%) = 75 (active).
With DYRK1B, rucaparib or vehicle Vehicle, cell line OCI-C5x (clear cell), technical replicate 1, the values are viability, normalised (%) = 29 (active).
For DYRK1B, rucaparib or vehicle Vehicle, cell line OCI-C5x (clear cell), technical replicate 2, the values are viability, normalised (%) = 29.3 (active).
With DYRK1B, rucaparib or vehicle Vehicle, cell line OCI-C5x (clear cell), technical replicate 3 the deposit lists viability, normalised (%) = 35.7 (active).
For DYRK1B, rucaparib or vehicle Vehicle, cell line OCI-P5x (serous), technical replicate 1 the deposit lists viability, normalised (%) = 70 (active).
With DYRK1B, rucaparib or vehicle Vehicle, cell line OCI-P5x (serous), technical replicate 2 the deposit lists viability, normalised (%) = 62.6 (active).
For DYRK1B, rucaparib or vehicle Vehicle, cell line OCI-P5x (serous), technical replicate 3, the entry reads viability, normalised (%) = 86.
